The list shows a part of the results.
Each target was assayed with COc1cc(Nc2ncc3c(n2)-c2ccc(Cl)cc2C(c2c(F)cccc2OC)=NC3)ccc1C(=O)O [alisertib] (assay: log2 fold change, soluble protein after heating vs DMSO (PISA); higher = thermal stabilisation; K562 lysate, 10 uM; active = over 0.2 and 3.5 SD of the protein, either way, in both replicates (recomputed)).
How it was run: (§1)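 Pellets of K562 cells were dounce-homogenised in PBS pH 7.4 with 1 mM MgCl2, and the crude extract was held at 1 mg/mL protein for a 30 min treatment with 10 μM compound. Aliquots were heated for 3 min over 48°C-58°C and pooled before NP-40 was added to 0.5% at 4°C. The supernatant from 21,000xg for 90 min was quantified by TMTpro 16plex LC-MS/MS with channel sums equalised. Values are reported from duplicates as log-two fold change in thermal stability relative to solvent controls.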

The chains behind the UniProt entries cited, without tags or fusion partners. Where a name states a change or a piece, a line headed by the entry shows the natural chain unless it says otherwise.
UniProt Q9BSF4: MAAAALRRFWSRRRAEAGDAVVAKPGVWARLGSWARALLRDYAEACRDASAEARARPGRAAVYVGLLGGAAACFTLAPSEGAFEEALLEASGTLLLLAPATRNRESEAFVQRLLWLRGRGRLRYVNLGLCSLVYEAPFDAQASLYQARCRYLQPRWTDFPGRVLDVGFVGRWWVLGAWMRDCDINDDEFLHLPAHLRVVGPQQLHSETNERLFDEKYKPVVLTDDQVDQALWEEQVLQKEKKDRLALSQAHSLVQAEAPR
UniProt Q9Y4G6: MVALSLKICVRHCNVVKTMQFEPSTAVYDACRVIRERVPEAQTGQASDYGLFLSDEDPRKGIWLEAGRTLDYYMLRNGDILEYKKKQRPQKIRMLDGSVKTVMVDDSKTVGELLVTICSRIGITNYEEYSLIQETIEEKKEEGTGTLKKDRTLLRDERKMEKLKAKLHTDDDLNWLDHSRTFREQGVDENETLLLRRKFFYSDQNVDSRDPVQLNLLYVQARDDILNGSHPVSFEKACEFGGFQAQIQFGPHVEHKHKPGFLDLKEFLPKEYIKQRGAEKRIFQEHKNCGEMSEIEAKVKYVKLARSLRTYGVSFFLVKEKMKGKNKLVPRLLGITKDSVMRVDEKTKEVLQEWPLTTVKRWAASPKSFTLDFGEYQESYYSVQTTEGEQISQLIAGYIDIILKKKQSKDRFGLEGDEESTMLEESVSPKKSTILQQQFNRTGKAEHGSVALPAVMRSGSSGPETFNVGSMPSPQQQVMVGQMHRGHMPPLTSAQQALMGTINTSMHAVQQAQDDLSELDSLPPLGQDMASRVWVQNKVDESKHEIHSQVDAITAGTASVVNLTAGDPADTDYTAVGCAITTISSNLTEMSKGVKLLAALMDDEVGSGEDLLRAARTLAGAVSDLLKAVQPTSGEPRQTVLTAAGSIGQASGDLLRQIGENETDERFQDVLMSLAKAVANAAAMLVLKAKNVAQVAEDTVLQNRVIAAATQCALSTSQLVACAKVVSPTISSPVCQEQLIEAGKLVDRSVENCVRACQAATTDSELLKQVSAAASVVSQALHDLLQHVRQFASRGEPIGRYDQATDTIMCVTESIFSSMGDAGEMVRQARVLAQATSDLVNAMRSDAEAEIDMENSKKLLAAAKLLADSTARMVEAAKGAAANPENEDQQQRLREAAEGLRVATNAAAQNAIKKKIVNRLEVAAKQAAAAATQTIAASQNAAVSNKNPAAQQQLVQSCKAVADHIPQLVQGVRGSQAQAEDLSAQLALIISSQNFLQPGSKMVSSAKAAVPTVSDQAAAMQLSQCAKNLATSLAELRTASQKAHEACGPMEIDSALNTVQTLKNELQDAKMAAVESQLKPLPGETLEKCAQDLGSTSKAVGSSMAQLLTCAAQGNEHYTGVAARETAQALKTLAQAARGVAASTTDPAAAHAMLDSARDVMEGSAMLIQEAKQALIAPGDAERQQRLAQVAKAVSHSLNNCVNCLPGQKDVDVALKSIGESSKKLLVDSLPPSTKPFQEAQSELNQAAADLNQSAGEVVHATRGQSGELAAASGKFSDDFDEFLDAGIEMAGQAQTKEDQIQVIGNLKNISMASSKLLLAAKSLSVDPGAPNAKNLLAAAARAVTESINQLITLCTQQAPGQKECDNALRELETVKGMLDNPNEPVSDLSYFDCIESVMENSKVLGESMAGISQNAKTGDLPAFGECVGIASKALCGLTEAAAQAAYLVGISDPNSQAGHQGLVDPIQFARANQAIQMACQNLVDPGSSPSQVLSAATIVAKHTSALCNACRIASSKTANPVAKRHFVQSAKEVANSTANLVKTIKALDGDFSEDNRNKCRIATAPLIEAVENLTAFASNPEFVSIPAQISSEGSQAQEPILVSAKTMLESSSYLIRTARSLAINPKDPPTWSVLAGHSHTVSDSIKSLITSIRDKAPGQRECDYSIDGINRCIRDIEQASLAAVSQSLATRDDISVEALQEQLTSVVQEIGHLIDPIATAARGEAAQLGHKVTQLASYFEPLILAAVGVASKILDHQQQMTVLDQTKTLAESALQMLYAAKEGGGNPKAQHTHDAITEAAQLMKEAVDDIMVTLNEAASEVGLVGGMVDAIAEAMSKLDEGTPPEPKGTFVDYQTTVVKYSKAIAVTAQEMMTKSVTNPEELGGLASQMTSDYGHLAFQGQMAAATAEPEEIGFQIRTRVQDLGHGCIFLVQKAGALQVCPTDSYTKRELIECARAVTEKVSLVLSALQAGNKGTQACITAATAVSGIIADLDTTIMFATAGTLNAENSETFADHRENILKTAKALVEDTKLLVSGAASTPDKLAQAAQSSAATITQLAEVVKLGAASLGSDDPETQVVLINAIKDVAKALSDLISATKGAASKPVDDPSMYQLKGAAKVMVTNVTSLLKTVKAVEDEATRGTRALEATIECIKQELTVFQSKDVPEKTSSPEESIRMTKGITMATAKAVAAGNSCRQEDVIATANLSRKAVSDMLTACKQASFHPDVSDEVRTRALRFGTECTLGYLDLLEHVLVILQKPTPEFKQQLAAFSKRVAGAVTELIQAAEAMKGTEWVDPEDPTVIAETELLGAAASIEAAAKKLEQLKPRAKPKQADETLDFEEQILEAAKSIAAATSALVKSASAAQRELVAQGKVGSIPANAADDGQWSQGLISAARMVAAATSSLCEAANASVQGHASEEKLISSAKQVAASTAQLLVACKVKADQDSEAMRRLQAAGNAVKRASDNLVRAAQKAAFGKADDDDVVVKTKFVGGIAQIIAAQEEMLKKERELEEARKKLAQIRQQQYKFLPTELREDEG
UniProt Q9H061: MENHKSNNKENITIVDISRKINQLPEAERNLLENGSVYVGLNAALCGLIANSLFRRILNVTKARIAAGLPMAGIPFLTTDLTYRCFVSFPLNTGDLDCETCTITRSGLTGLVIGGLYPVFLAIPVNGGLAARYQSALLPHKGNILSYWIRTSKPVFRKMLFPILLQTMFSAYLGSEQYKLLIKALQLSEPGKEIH
UniProt Q9Y3A6: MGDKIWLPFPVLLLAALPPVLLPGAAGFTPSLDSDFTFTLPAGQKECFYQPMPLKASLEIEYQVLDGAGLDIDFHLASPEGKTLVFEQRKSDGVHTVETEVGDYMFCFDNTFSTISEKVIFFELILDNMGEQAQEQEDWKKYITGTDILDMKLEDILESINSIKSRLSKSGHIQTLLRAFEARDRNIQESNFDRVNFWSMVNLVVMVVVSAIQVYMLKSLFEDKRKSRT
UniProt Q9Y2S6, whole entry, looked up: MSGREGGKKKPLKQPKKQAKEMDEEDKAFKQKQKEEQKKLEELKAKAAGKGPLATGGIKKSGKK
UniProt Q9Y584: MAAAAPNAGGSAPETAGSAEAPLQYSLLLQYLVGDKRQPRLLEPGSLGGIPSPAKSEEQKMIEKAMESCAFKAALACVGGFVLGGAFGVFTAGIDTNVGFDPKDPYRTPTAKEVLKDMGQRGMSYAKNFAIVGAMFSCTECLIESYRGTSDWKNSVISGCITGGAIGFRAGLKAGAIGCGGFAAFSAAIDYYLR
UniProt Q9NX61: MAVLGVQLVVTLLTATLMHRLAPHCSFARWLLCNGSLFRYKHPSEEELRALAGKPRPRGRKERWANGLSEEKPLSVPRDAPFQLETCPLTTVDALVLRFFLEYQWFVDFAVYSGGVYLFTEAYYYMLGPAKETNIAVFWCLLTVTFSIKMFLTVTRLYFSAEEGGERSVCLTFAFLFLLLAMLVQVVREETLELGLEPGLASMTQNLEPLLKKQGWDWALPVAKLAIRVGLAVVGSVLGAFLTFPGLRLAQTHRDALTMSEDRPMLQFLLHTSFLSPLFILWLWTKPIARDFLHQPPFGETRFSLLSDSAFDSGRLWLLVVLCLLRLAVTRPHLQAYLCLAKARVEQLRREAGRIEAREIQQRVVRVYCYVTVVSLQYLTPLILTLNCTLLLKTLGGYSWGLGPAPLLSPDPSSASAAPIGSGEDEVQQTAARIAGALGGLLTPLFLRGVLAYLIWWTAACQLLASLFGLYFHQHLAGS
UniProt O43615: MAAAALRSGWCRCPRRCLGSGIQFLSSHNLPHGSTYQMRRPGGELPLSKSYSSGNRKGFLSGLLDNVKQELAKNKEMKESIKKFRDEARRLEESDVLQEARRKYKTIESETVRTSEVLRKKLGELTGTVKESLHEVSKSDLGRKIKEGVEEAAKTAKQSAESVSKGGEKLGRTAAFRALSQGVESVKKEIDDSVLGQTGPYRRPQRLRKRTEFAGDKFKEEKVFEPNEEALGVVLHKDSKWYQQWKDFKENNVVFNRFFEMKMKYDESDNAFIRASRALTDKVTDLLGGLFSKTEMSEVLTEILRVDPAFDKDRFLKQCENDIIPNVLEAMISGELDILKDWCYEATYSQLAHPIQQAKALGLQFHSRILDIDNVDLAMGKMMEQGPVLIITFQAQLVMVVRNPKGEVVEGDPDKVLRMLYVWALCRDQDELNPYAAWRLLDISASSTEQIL
UniProt Q5T1C6: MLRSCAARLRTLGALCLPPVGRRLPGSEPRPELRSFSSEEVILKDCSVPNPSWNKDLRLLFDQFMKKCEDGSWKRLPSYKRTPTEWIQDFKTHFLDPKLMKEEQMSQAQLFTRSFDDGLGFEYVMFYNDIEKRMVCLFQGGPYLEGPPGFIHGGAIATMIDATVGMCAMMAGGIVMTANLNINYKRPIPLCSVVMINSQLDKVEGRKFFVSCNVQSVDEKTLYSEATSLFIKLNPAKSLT
UniProt P49755: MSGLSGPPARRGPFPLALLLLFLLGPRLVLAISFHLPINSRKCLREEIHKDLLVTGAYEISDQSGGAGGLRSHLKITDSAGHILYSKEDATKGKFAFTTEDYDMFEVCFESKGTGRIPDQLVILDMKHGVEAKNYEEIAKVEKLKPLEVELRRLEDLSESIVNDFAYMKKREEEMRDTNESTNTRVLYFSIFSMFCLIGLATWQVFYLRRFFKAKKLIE
UniProt O75663: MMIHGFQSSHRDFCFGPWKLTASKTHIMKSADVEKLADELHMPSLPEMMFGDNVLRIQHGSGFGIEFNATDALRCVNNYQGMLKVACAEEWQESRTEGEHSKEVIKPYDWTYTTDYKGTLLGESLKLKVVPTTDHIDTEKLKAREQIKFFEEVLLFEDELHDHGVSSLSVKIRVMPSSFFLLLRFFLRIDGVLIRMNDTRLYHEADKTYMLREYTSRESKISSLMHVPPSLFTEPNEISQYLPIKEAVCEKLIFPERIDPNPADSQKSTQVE
UniProt Q99595: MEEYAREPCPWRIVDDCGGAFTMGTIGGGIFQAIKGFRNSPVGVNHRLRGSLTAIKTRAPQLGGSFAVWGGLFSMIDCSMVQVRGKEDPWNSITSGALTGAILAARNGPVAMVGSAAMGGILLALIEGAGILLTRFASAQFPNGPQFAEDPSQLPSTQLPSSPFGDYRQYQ
UniProt O60830: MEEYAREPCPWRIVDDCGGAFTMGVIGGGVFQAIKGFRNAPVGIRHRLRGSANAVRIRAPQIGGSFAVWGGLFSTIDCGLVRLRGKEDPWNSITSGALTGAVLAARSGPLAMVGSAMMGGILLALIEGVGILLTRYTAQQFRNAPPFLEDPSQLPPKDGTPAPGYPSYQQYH
UniProt Q3ZCQ8: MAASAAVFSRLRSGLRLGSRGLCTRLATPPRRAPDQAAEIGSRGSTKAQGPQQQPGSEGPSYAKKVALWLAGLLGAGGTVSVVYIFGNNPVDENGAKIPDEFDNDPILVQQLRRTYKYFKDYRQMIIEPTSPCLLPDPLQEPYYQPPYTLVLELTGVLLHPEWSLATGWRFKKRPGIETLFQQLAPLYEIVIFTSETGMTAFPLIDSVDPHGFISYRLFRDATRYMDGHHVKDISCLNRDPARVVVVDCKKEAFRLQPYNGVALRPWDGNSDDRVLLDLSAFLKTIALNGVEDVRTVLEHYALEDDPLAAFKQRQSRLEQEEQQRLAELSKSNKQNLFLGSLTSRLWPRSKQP
UniProt Q6PL24: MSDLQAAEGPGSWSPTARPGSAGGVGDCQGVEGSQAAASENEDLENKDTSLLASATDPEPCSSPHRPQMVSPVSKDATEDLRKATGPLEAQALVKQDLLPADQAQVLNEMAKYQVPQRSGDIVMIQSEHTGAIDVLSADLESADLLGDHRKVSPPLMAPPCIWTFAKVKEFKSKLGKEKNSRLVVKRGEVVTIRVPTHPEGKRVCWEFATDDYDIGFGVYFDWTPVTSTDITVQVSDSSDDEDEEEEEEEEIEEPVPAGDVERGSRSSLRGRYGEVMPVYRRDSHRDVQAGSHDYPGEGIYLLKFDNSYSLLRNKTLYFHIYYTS
UniProt Q01085: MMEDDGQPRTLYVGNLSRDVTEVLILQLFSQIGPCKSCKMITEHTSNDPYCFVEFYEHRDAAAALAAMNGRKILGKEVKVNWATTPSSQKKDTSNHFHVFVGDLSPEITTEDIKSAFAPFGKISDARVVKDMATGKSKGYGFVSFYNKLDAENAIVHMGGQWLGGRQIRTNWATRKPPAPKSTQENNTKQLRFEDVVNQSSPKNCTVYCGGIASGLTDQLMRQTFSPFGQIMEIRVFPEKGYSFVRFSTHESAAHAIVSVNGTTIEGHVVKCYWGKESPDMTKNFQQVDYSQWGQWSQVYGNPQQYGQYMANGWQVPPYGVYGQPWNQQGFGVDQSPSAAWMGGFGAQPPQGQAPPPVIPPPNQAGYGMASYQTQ

log2 fold change, inactive:
TGS1 (UniProt Q96RS0) 0.013
TIMM29 (UniProt Q9BSF4) 0.011
TLN2 (UniProt Q9Y4G6) 0.012
TMEM126A (UniProt Q9H061) -0.031
TMED5 (UniProt Q9Y3A6) 0.017
TMA7 (UniProt Q9Y2S6) 0.005
TIMM22 (UniProt Q9Y584) 0.027
TMEM161A (UniProt Q9NX61) 0.141
TIMM44 (UniProt O43615) 0.082
THEM4 (UniProt Q5T1C6) 0.07
TMED10 (UniProt P49755) -0.037
TMA16 (UniProt Q96EY4) -0.008
TIPRL (UniProt O75663) 0.001
TIMM17A (UniProt Q99595) -0.005
TIMM17B (UniProt O60830) -0.013
TIMM50 isoform 2 (UniProt Q3ZCQ8) 0.063
TMED8 (UniProt Q6PL24) -0.017
TIAL1 isoform 2 (UniProt Q01085) 0.027

What follows are targets tested with COc1cc2nc(-c3cc(F)ccc3O)nc(N[C@@H]3CNC[C@H]3C(C)(C)O)c2cc1OC in the same assay as above.
How it was run: as §1

log2 fold change, inactive:
TICAM2 isoform 2 (UniProt Q86XR7) -0.013
THUMPD2 (UniProt Q9BTF0) 0.045
TMCO1 (UniProt Q9UM00) -0.108
TGOLN2 isoform 7 (UniProt O43493) 0.02
TMBIM1 (UniProt Q969X1) 0.022
TMEM120A (UniProt Q9BXJ8) 0.013
TIMMDC1 (UniProt Q9NPL8) -0.015
TIMM23 (UniProt O14925) 0.038
TJP2 isoform 7 (UniProt Q9UDY2) -0.015
TMEM185B (UniProt Q9H7F4) 0.01
TM9SF4 (UniProt Q92544) -0.004
TMEM168 (UniProt Q9H0V1) 0.043
TMEM164 (UniProt Q5U3C3) 0.021
THYN1 (UniProt Q9P016) -0.023
THNSL1 (UniProt Q8IYQ7) 0.018
TMBIM6 isoform 2 (UniProt P55061) -0.068
THOP1 (UniProt P52888) 0.007
TMCO6 isoform 2 (UniProt Q96DC7) -0.097
TMEM109 (UniProt Q9BVC6) 0.027
THOC5 (UniProt Q13769) 0.006
THOC1 (UniProt Q96FV9) 0.001
TLE4 isoform 3 (UniProt Q04727) 0.02
TGS1 (UniProt Q96RS0) -0.042
TIMM29 (UniProt Q9BSF4) -0.004
TLN2 (UniProt Q9Y4G6) -0.01
TMEM126A (UniProt Q9H061) -0.012
TMED5 (UniProt Q9Y3A6) -0.043
TMA7 (UniProt Q9Y2S6) 0.006
TIMM22 (UniProt Q9Y584) 0.029
TMEM161A (UniProt Q9NX61) -0.098
TIMM44 (UniProt O43615) -0.04
THEM4 (UniProt Q5T1C6) 0.017
TMED10 (UniProt P49755) -0.044
TMA16 (UniProt Q96EY4) -0.004
TIPRL (UniProt O75663) -0.021
TIMM17A (UniProt Q99595) 0.02
TIMM17B (UniProt O60830) -0.005
TIMM50 isoform 2 (UniProt Q3ZCQ8) -0.019
TMED8 (UniProt Q6PL24) 0.006
TIAL1 isoform 2 (UniProt Q01085) 0.013

Each target was assayed with COc1cc2ncnc(Nc3ccc(F)c(Cl)c3)c2cc1OCCCN1CCOCC1 [gefitinib] in the same assay as above.
How it was run: as §1

log2 fold change, inactive:
TICAM2 isoform 2 (UniProt Q86XR7) -0.02
THUMPD2 (UniProt Q9BTF0) 0.007
TMCO1 (UniProt Q9UM00) 0.044
TGOLN2 isoform 7 (UniProt O43493) -0.048
TMBIM1 (UniProt Q969X1) -0.054
TMEM120A (UniProt Q9BXJ8) 0.06
TIMMDC1 (UniProt Q9NPL8) -0.048
TIMM23 (UniProt O14925) 0.004
TJP2 isoform 7 (UniProt Q9UDY2) -0.029
TMEM185B (UniProt Q9H7F4) 0.117
TM9SF4 (UniProt Q92544) -0.023
TMEM168 (UniProt Q9H0V1) 0.292
TMEM164 (UniProt Q5U3C3) -0.063
THYN1 (UniProt Q9P016) -0.027
THNSL1 (UniProt Q8IYQ7) 0.024
TMBIM6 isoform 2 (UniProt P55061) 0.002
THOP1 (UniProt P52888) -0.01
TMCO6 isoform 2 (UniProt Q96DC7) 0.106
TMEM109 (UniProt Q9BVC6) 0.017
THOC5 (UniProt Q13769) -0.018
THOC1 (UniProt Q96FV9) 0.032
TLE4 isoform 3 (UniProt Q04727) -0.038
TGS1 (UniProt Q96RS0) 0.021
TIMM29 (UniProt Q9BSF4) -0.019
TLN2 (UniProt Q9Y4G6) -0.008
TMEM126A (UniProt Q9H061) 0.01
TMED5 (UniProt Q9Y3A6) 0.023
TMA7 (UniProt Q9Y2S6) 0.023
TIMM22 (UniProt Q9Y584) -0.027
TMEM161A (UniProt Q9NX61) -0.047
TIMM44 (UniProt O43615) 0.017
THEM4 (UniProt Q5T1C6) 0.042
TMED10 (UniProt P49755) -0.083
TMA16 (UniProt Q96EY4) -0.062
TIPRL (UniProt O75663) 0
TIMM17A (UniProt Q99595) 0.013
TIMM17B (UniProt O60830) 0.041
TIMM50 isoform 2 (UniProt Q3ZCQ8) 0.012
TMED8 (UniProt Q6PL24) 0.007
TIAL1 isoform 2 (UniProt Q01085) 0.041

Source: the supplement of paper PMC10849652
